{"source": "patent US6015801A", "about": "“Method for inhibiting bone resorption” (Merck & Co., Inc., priority 1998, dated 2000)", "test_system": "canine esophagus", "assay": "Esophageal irritation potential in a dog model (infusion into esophagus, histopathology)", "experimental": "The esophageal irritation potential of the bisphosphonates is evaluated using a dog model.\nThe following solutions are prepared:\n(1) simulated gastric juice (pH about 2), i.e. the control solution.\n(5) simulated gastric juice (pH about 2) containing about 0.20 mg/mL of risedronate sodium on a risedronic acid active basis.\n(6) simulated gastric juice (pH about 2) containing about 4.0 mg/mL of tiludronate disodium on a tiludronic acid active basis.\nThe pH of the resulting solution is measured and if necessary is adjusted to about 2 using 1.0 M HCl (aqueous) or 1.0 M NaOH (aqueous).\nThe animals used in the experiments are anesthetized and administered about 50 mL of the appropriate solution over about 30 minutes by infusion into the esophagus using an infusion pump and a rubber catheter. The following treatment experiments are run:\nGroup 1: This control group contains four animals. Each animal is administered a dosage of about 50 mL of simulated gastric juice [solution (1)] on each of five consecutive days. The animals are sacrificed immediately after the last dose is administered. […]\nGroup 7: This group contains eight animals. Each animal is administered a dosage of about 50 mL of simulated gastric juice containing about 0.20 mg/mL of risedronate [solution (5)] on each of five consecutive days. The animals are sacrificed immediately after the last dose is administered.\nGroup 8: This group contains four animals. Each animal is administered a dosage of about 50 mL of simulated gastric juice containing about 4.0 mg/mL of tiludronate [solution (6)] on each of five consecutive days. The animals are sacrificed immediately after the last dose is administered.\nThe esophagus from each sacrificed animal is removed and prepared for histopathology using standard techniques by embedding the tissue in paraffin, staining with hematoxylin and eosin. The sections are examined microscopically.", "key": {"[1]": {"settings": "single high concentration dosage (Groups 3 and 4)"}}, "data": [{"smiles": "NCCCC(O)(P(=O)(O)O)P(=O)(O)O", "note": "[Alendronate, 4-amino-1-hydroxybutylidene-1,1-bisphosphonic acid monosodium trihydrate]", "values": [{"measurement": "Esophageal irritation versus low concentration dosages on consecutive days (Group 2)", "setting": "high concentration on a weekly basis (Group 5)", "value": "considerably less esophageal irritation"}, {"measurement": "Esophageal irritation versus control Group 1", "setting": "[1]", "value": "comparable to control"}, {"measurement": "Esophageal irritation versus low concentration dosages on consecutive days (Group 2)", "setting": "[1]", "value": "considerably less esophageal irritation"}, {"measurement": "Esophageal irritation versus low concentration dosages on consecutive days (Group 2)", "setting": "twice-weekly basis (Group 6)", "value": "considerably less esophageal irritation"}]}]}
